# Results as given in PubChem BioAssay AID651640 (Broad Institute, 2012).
# The whole screen tested about 350,000 compounds, of which about 6,000 (1.7%) were called active. This list was built around the results that the source calls inconclusive (neither active nor inactive); the mix of calls is not that of the screen. No stated cut-off is given here; in the data, active means CPE inhibition above about 20% (passing the limit was not always enough); inconclusive means no clear call, values can overlap the other calls; tested in BHK-21 cells.
# Test: protection of cells from dengue 2 killing – plate reader, single concentration, primary screen (AID 651640);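 further: 0% = median of neutral control wells and 100% = median of positive control wells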
# Details: DENV2-infected cells, cytopathic effect rescue, at 9.99 µM, hits give high values
row,Compound,CPE inhibition
1,CCC[C@H]1CN(c2ccc(OC)cc2)C(=O)[C@@H]1CC(=O)NC,inconclusive: 21.7%
2,COc1ccc2c3c([nH]c2c1)[C@@H](CO)N(C(=O)NC(C)C)CC31CN(C(=O)NC(C)C)C1,active: 46.9%
3,COc1ccccc1CNC(=O)c1cc(C)nn1-c1ccccc1,inactive: -0.051%
4,N#Cc1nc(-c2cccc3ccccc23)oc1NCC1CCCO1 (stereo not given),inconclusive: 31.3%
5,C=C1C(C(=O)N2CCN(C)CC2)C1C(=O)N1CCN(C)CC1 (stereo not given),inconclusive: 20.8%
6,CC1(c2nnnn2Cc2ccccc2)CCC(=O)N1CCCn1ccnc1 (stereo not given),active: 26.1%
7,O=C(COc1ccc(Cl)cc1Cl)NN1C(=O)C2C3C=CC(C3)C2C1=O (stereo not given),inconclusive: 39.6%
8,CCOC(=O)N1CCC(NC(=O)C2=C(C)C(=O)OC23CCC(C)CC3)CC1 (stereo not given),inconclusive: 27.6%
9,COc1ccc(S(=O)(=O)Nc2ccc3c(c2)C(=O)N([C@H](C)CO)C[C@@H](C)[C@H](CN(C)C(=O)Nc2ccc(F)cc2)OCCCC[C@@H](C)O3)cc1,inconclusive: 43.7%
10,CC(C)CCNC(=O)CCn1nc(-c2ccccc2)ccc1=O,inconclusive: 26.7%
11,CCCC#Cc1ccc([C@H]2[C@@H](CO)N3CCCCN(CC4CCOCC4)C[C@@H]23)cc1,inconclusive: 20.8%
12,Cc1noc(C)c1S(=O)(=O)N(C)C[C@H]1OCCCC[C@H](C)Oc2ccc(NS(=O)(=O)c3ccccc3)cc2C(=O)N([C@H](C)CO)C[C@@H]1C,inconclusive: 58.2%
13,Cc1cc(C(=O)NNC(=O)/C=C/c2ccccc2Cl)c(C)o1,inactive: -4.94%
14,Cc1noc(C)c1NC(=O)NCC[C@H]1CC[C@@H](NC(=O)c2ccccc2)[C@@H](CO)O1,inactive: 1.91%
15,C[C@@H]1CN([C@H](C)CO)C(=O)c2cc(-c3ccccc3F)cnc2O[C@H]1CN(C)C(=O)C1CC1,inconclusive: 25.2%
16,CC1(C)Cc2c(cnn2-c2cccc(F)c2)C(NC(=O)C2CCOCC2)C1 (stereo not given),inconclusive: 43.1%
17,O=c1[nH]c(C2CCN(S(=O)(=O)c3ccc4c(c3)OCCO4)CC2)nc2c1nnn2Cc1ccccc1F,inactive: 2.08%
18,COCC(=O)N1CC(=O)N2[C@H](CO)[C@@H](c3ccc(C#CC(C)C)cc3)[C@H]2C1,inconclusive: 20.8%
19,COc1ccc(C(=O)CN2C(=O)NC3(CCc4ccccc43)C2=O)cc1 (stereo not given),inconclusive: 22.1%
20,C[C@H]1CN([C@@H](C)CO)C(=O)c2cccc(NS(=O)(=O)c3ccc(F)cc3)c2O[C@H]1CN(C)Cc1ccc(C(=O)Nc2ccccc2N)cc1,active: 22%
21,O=C(C[C@@H]1CC[C@@H]2[C@H](COC[C@H](O)CN2Cc2ccc(F)cc2)O1)NCc1ccncn1,inactive: 19.2%
22,O=C(c1ccc(F)cc1)N1CC[C@H]2[C@H](CO)Nc3ccc(-c4ccccc4F)cc3[C@H]21,inconclusive: 44.3%
23,C/C=C/c1ccc([C@H]2[C@@H](CO)N(C(=O)CC)[C@H]2CNC(=O)C2CC2)cc1,inactive: 2.58%
24,CC1=C(C(=O)OC(C)C)C(c2ccc(C)o2)C(C(=O)OC(C)C)=C(C)N1,inconclusive: 21.1%

# Shown as tab-separated lines: 5 of the compounds above.
row	Compound	CPE inhibition
7	O=C(COc1ccc(Cl)cc1Cl)NN1C(=O)C2C3C=CC(C3)C2C1=O (stereo not given)	inconclusive: 39.6%
8	CCOC(=O)N1CCC(NC(=O)C2=C(C)C(=O)OC23CCC(C)CC3)CC1 (stereo not given)	inconclusive: 27.6%
9	COc1ccc(S(=O)(=O)Nc2ccc3c(c2)C(=O)N([C@H](C)CO)C[C@@H](C)[C@H](CN(C)C(=O)Nc2ccc(F)cc2)OCCCC[C@@H](C)O3)cc1	inconclusive: 43.7%
10	CC(C)CCNC(=O)CCn1nc(-c2ccccc2)ccc1=O	inconclusive: 26.7%
11	CCCC#Cc1ccc([C@H]2[C@@H](CO)N3CCCCN(CC4CCOCC4)C[C@@H]23)cc1	inconclusive: 20.8%

# (more compounds)

row,Compound,CPE inhibition
1,CN(C)CCCNC(=O)[C@H]1[C@H](CO)[C@H]2Cn3c(cccc3=O)[C@@H]1N2C(=O)Nc1cc(F)ccc1F,inconclusive: 36%
2,COc1ccc(NC(=O)Nc2ccc3c(c2)C(=O)N([C@@H](C)CO)C[C@@H](C)[C@@H](CN(C)S(=O)(=O)c2cccs2)OCCCC[C@H](C)O3)cc1,inconclusive: 27.2%
3,CO[C@@H]1CN(C)C(=O)c2cc(NS(=O)(=O)CC(F)(F)F)ccc2OC[C@@H](C)N(C(=O)c2ccc3c(c2)OCO3)C[C@@H]1C,inactive: 2.35%
4,C[C@H]1CN([C@@H](C)CO)C(=O)c2ccccc2-c2ccccc2CO[C@@H]1CN(C)C(=O)Cc1ccccc1,inactive: -0.148%
5,C[C@@H]1CN([C@@H](C)CO)C(=O)c2cc(NC(=O)Cc3cn(C)c4ccccc34)ccc2O[C@H]1CN(C)S(C)(=O)=O,inactive: -6.21%
6,CN(CC(=O)NCc1ccccc1)S(=O)(=O)c1cnc[nH]1,inactive: -5.92%
7,COCC(=O)N1CCC2(CC1)CN(Cc1cccc(OC)c1)[C@@H](CO)c1c2c2ccc(OC)cc2n1C,inconclusive: 65.8%
8,Cc1noc(C)c1NC(=O)Nc1ccc2c(c1)CC(=O)N([C@@H](C)CO)C[C@H](C)[C@@H](CN(C)Cc1ccc(C(=O)O)cc1)O2,inconclusive: 33.7%
9,Fc1ccc(C(c2nnnn2Cc2ccccc2)N2CCSCC2)cc1 (stereo not given),inactive: 9.59%
10,C[C@H](CO)N1C[C@H](C)[C@H](CN(C)Cc2ccc(-c3ccccc3)cc2)Oc2c(NS(=O)(=O)c3cn(C)cn3)cccc2C1=O,inactive: -2.7%
11,CC=Cc1ccc2n(c1=O)C[C@H]1[C@H](CO)[C@@H](C(=O)NC3CCCC3)N(Cc3ccccc3)[C@@H]21 (mixture of isomers),inactive: -1.6%
12,CC(C)NC(=O)N1[C@H](CO)[C@H](c2ccc(-c3ccc(F)cc3)cc2)[C@@H]1C#N,active: 35.2%
13,Cn1c(=O)c2cc(NC(=O)NCc3ccc(Cl)cc3Cl)ccc2n1Cc1ccc(F)cc1,inconclusive: 36.4%
14,CCCN1C[C@H](C)[C@H](OC)CN(C)C(=O)c2cc(NC(=O)c3ccccc3F)ccc2OC[C@@H]1C,inconclusive: 25.6%
15,Cc1ccccc1-c1ccccc1[C@H]1[C@@H](C#N)N(C(=O)c2ccccc2)[C@@H]1CO,inactive: 2.54%
16,S=c1[nH]nc(-c2ccncc2)n1/N=C/c1cccc2ccccc12,inconclusive: 23.2%
17,COc1ccc(NC(=O)Nc2ccc(N3CCOCC3)c3nonc23)c(OC)c1,inconclusive: 20.1%
18,C[C@@H]1CCCCO[C@H](CN(C)Cc2ccc3c(c2)OCO3)[C@@H](C)CN([C@@H](C)CO)C(=O)c2cc(NS(=O)(=O)c3ccccc3)ccc2O1,inactive: -3.27%
19,C[C@H]1CCCCO[C@H](CN(C)C(=O)Nc2ccc(C(F)(F)F)cc2)[C@@H](C)CN([C@@H](C)CO)C(=O)c2cc(NC(=O)Nc3ccc4c(c3)OCO4)ccc2O1,inactive: -0.649%
20,O=C(Nc1nccs1)C1=COCCO1,inconclusive: 22.3%
21,Cc1ccc(C(=O)Nc2nc(C)c(C(=O)Nc3ccc4c(c3)CCC4)s2)cc1,inactive: 3.1%
22,Cc1cccc(S(=O)(=O)NC(=O)C2(C)CCN2C(=O)C/C=C/c2ccccc2)c1 (stereo not given),inconclusive: 41.2%
23,CNC[C@H]1Oc2c(NC(=O)c3ccc(-c4nccs4)cc3)cccc2C(=O)N([C@@H](C)CO)C[C@@H]1C,inconclusive: 83.9%
24,Fc1ccc(CO/N=C2\CCCc3nonc32)cc1,inconclusive: 31.8%

row,Compound,CPE inhibition
1,CCOC(=O)CNC(=O)CSc1nc(C(C)C)nc2c1cnn2-c1ccccc1,inconclusive: 33.5%
2,C[C@H]1CN([C@@H](C)CO)C(=O)c2cc(NC(=O)C3CCCCC3)ccc2O[C@@H]1CN(C)Cc1ccc2c(c1)OCO2,inactive: 2.77%
3,CO[C@@H]1CN(C)C(=O)c2cc(NC(=O)C3CC3)ccc2OC[C@H](C)N(Cc2cccc(F)c2)C[C@@H]1C,inactive: -11.2%
4,CCOc1ccccc1C=C1SC(=S)NC1=O,active: 34.9%
5,O=C(CC(CC(=O)c1ccccc1)c1ccccn1)c1ccccc1,inconclusive: 39.9%
6,C[C@H]1CN([C@@H](C)CO)C(=O)CCCn2cc(nn2)CO[C@H]1CN(C)C(=O)OCc1ccccc1,inactive: 19.6%
7,COc1cccc(S(=O)(=O)Nc2ccc3c(c2)OC[C@@H](C)N(Cc2ccccc2F)C[C@@H](C)[C@H](OC)CN(C)C3=O)c1,inconclusive: 22.9%
8,CC1(C)OC(=O)C2=C(C[C@@H](C3CC3)O[C@@H]2C2CC2)O1,active: 60.8%
9,O=C(Nc1ccc(F)cc1)N[C@H]1CC[C@@H](CC(=O)N2CCCCC2)O[C@@H]1CO,inconclusive: 29.9%
10,O=C1c2c(O)cc(O)cc2O[C@H](c2ccc(O)cc2)[C@H]1O,inconclusive: 21.8%
11,COc1ccccc1-c1ccccc1[C@@H]1[C@@H](C#N)N(C(=O)CN(C)C)[C@@H]1CO,inconclusive: 21.1%
12,CCCNC(=O)[C@@H]1[C@@H](CO)[C@@H]2Cn3c(ccc(-c4ccccc4)c3=O)[C@@H]2N1CC,inconclusive: 35.8%
13,COc1cc(OC)c(C(=O)NNC(=O)c2ccc(NS(=O)(=O)c3cccs3)cc2)cc1OC,inconclusive: 20.2%
14,O=C(NC12CC3CC(CC(C3)C1)C2)N1CCN(C2CCCCC2)CC1,inconclusive: 25.1%
15,CC(=O)c1ccc(OCCCC(=O)Nc2cccc(S(=O)(=O)N3CCOCC3)c2)cc1,inactive: 0.362%
16,N#CCCN(C(=O)COC(=O)C1CCN(c2ccc(C(F)(F)F)cn2)CC1)c1ccc(F)cc1,inconclusive: 29.8%
17,COc1ccc(NS(=O)(=O)c2ccc(C(=O)NCC3(N4CCOCC4)CCCCC3)cc2)cc1,inconclusive: 26.6%
18,Cc1noc(C)c1NC(=O)Nc1ccc2c(c1)C(=O)N([C@H](C)CO)C[C@@H](C)[C@H](CN(C)C(=O)Nc1c(C)noc1C)O2,inactive: 1.78%
19,COc1ccccc1C(=O)NCCC(=O)N1CCN(C(=O)c2ccco2)CC1,inconclusive: 31.7%
20,CCOC(=O)c1cn(CC)c2cc3c(cc2c1=O)OCO3,active: 24.7%
21,COCCn1c(=S)[nH]c2cc(C(=O)NCc3ccccc3)ccc2c1=O,inactive: 2.99%
22,O=C(c1ccccc1)N1CC[C@@H]2[C@H](CO)Nc3ccc(C#Cc4cccc(F)c4)cc3[C@@H]21,active: 116%
